This is a selection; strong and weak results do not stand in their true shares.
Compound: COC(=O)C#Cc1ccccc1 [methyl 3-phenylpropiolate]
Assay: log2 ratio of iodoacetamide-alkyne labeling of the cysteine site, DMSO over compound (competition); higher = stronger covalent engagement of the cysteine by the compound, active = 1 or more
Settings: 500 µM; treatment time 1 h; system: HEK293T cell lysate
Summary of the method: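 Reporter intensities give each cysteine's log2 competition ratio as the mean of control channels over the mean of compound channels. The samples were HEK293T lysate (2 mg/mL) given vehicle or electrophile (500 µM, 1 h, ambient temperature), then iodoacetamide alkyne (1 h), followed by click coupling to sCIP-TMT reagents, pooling, trypsin digestion overnight at 37 °C, streptavidin enrichment, acid elution, Orbitrap Eclipse LC-MS/MS with FAIMS and FragPipe quantification. Duplicate channels and three replicates were run, and cysteines quantified in only one replicate were discarded.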

Protein sequences, listed by entry. Tags and fused reporters are not part of them. Lines headed by an entry give the natural chain unless they say otherwise; changes in a name come on top.
UniProt Q9BTA9: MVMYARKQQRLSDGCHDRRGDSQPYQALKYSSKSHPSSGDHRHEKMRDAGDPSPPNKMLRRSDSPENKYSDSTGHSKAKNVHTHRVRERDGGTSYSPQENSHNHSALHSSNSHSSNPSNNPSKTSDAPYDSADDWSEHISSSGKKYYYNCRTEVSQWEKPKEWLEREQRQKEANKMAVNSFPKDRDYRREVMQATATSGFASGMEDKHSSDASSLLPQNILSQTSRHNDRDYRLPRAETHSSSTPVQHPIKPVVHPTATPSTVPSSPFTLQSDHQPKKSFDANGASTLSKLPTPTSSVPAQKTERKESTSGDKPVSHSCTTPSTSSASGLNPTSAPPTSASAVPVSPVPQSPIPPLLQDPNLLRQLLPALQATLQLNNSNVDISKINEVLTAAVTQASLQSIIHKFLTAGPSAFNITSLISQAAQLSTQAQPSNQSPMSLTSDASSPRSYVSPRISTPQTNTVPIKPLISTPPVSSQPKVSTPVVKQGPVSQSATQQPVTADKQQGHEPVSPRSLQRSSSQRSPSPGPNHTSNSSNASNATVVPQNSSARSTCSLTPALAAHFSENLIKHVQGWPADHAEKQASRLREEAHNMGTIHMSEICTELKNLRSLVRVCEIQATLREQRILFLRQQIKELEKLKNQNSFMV
UniProt Q9BSJ5: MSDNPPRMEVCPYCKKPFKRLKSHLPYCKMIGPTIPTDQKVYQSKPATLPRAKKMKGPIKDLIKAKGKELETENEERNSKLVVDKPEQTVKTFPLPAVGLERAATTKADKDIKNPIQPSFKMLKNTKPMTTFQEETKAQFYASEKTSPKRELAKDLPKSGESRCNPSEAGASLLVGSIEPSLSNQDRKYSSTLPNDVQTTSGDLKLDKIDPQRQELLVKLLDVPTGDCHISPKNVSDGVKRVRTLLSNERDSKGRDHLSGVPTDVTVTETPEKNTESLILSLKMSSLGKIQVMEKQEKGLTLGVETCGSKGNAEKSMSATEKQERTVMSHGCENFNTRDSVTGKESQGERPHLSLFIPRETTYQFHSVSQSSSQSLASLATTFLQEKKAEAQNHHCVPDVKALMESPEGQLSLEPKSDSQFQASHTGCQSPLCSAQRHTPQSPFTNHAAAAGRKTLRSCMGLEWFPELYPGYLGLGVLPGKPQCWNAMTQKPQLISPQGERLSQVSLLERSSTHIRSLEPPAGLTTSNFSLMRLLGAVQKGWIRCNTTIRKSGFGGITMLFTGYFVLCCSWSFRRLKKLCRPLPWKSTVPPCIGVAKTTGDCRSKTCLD
UniProt Q9BTU6: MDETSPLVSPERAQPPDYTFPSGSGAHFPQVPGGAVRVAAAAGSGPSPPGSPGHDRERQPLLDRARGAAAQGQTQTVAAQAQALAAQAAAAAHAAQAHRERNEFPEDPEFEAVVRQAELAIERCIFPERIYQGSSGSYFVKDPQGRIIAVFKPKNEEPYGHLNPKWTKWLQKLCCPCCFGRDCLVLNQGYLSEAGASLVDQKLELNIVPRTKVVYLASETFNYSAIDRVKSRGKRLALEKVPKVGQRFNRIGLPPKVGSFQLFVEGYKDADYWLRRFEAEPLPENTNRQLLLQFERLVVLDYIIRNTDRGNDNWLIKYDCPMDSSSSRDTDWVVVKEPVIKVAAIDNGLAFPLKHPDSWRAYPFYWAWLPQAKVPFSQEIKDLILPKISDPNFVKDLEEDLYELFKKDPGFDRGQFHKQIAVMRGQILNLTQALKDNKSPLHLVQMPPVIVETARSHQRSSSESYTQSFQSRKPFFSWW
UniProt Q9BV44: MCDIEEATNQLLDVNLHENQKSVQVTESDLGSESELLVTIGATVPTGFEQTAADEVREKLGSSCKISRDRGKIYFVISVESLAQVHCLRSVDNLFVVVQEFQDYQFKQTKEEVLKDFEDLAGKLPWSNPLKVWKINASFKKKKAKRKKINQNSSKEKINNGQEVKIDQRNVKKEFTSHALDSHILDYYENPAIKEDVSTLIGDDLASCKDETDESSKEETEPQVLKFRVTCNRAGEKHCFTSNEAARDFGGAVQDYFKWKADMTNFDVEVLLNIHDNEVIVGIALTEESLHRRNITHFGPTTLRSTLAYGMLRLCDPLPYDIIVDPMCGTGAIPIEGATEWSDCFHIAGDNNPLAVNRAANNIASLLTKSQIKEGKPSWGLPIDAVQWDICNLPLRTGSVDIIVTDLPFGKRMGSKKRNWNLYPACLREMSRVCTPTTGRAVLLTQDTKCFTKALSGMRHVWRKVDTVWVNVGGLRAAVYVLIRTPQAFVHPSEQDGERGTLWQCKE
UniProt Q9BZQ6: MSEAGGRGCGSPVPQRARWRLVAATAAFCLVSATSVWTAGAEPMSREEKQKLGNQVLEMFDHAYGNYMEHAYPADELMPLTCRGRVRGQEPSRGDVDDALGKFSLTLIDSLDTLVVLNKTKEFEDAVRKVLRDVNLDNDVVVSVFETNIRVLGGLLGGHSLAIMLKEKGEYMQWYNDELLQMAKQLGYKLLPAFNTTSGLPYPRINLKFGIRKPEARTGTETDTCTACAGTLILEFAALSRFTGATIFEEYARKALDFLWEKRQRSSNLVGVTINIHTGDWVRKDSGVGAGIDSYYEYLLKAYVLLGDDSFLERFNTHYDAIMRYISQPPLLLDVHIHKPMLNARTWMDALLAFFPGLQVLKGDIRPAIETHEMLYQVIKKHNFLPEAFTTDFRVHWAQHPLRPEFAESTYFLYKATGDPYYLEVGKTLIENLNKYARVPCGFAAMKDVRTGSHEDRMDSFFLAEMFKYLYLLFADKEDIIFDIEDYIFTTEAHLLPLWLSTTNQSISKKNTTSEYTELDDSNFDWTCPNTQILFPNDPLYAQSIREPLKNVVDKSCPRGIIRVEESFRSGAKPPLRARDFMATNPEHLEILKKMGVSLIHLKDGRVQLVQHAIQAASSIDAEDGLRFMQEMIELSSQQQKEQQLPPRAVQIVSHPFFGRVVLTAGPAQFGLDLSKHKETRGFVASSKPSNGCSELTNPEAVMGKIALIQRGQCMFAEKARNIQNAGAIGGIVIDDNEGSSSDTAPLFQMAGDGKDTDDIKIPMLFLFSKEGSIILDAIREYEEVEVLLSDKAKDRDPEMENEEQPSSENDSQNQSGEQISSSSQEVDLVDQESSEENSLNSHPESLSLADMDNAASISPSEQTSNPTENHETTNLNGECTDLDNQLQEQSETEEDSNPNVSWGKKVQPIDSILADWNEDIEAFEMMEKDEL
UniProt Q9BYG3: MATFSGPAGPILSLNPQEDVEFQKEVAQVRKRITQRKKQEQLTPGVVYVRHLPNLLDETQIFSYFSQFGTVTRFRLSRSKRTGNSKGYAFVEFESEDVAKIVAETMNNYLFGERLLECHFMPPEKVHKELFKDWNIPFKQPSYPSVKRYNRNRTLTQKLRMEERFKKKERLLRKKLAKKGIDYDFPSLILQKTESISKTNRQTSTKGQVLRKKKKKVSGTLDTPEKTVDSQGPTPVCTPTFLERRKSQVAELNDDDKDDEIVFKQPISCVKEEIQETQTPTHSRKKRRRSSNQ
UniProt Q9BXJ9: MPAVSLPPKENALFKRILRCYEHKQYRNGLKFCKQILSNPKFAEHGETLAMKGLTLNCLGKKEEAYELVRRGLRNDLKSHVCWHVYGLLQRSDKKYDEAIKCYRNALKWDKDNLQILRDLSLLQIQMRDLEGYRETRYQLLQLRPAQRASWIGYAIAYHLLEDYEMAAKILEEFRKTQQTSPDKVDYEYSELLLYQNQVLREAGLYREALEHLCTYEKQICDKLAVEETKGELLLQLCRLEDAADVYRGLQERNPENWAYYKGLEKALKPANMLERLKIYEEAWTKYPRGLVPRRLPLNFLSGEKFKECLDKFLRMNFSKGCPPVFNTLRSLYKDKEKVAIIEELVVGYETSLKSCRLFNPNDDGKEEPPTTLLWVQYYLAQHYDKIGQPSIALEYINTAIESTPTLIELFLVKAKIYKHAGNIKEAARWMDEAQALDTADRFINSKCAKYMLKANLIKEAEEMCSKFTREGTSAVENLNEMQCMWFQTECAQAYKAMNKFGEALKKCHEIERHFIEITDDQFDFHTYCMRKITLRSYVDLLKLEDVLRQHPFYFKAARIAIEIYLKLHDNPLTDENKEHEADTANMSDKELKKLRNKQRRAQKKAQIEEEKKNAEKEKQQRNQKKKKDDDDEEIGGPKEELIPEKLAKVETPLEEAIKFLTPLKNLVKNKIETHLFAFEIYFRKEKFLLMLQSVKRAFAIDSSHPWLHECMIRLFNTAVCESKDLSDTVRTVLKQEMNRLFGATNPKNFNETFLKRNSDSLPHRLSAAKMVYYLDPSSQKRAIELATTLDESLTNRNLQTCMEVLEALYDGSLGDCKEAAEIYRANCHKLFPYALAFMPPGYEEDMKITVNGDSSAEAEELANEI
UniProt Q9BV68: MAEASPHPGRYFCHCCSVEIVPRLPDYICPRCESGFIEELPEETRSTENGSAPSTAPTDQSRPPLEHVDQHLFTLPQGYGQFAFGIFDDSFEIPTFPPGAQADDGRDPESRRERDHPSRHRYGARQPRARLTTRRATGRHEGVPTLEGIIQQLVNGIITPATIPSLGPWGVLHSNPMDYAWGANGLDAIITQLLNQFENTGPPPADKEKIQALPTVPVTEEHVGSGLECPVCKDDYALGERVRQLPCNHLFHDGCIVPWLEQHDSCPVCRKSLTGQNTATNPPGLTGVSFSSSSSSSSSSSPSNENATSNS
UniProt Q9BV19: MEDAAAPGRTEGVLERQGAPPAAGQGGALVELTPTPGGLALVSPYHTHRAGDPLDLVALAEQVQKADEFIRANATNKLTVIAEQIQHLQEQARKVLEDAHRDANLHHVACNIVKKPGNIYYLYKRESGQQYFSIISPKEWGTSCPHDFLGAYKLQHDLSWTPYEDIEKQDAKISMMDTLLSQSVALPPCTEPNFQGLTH
UniProt Q9BSH5: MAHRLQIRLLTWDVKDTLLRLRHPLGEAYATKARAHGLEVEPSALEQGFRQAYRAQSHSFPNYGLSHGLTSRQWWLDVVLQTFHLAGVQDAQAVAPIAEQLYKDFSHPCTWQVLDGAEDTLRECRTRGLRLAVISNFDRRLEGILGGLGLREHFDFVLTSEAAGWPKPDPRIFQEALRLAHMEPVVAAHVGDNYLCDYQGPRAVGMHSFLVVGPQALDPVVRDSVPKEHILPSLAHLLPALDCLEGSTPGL
UniProt Q9BTW9: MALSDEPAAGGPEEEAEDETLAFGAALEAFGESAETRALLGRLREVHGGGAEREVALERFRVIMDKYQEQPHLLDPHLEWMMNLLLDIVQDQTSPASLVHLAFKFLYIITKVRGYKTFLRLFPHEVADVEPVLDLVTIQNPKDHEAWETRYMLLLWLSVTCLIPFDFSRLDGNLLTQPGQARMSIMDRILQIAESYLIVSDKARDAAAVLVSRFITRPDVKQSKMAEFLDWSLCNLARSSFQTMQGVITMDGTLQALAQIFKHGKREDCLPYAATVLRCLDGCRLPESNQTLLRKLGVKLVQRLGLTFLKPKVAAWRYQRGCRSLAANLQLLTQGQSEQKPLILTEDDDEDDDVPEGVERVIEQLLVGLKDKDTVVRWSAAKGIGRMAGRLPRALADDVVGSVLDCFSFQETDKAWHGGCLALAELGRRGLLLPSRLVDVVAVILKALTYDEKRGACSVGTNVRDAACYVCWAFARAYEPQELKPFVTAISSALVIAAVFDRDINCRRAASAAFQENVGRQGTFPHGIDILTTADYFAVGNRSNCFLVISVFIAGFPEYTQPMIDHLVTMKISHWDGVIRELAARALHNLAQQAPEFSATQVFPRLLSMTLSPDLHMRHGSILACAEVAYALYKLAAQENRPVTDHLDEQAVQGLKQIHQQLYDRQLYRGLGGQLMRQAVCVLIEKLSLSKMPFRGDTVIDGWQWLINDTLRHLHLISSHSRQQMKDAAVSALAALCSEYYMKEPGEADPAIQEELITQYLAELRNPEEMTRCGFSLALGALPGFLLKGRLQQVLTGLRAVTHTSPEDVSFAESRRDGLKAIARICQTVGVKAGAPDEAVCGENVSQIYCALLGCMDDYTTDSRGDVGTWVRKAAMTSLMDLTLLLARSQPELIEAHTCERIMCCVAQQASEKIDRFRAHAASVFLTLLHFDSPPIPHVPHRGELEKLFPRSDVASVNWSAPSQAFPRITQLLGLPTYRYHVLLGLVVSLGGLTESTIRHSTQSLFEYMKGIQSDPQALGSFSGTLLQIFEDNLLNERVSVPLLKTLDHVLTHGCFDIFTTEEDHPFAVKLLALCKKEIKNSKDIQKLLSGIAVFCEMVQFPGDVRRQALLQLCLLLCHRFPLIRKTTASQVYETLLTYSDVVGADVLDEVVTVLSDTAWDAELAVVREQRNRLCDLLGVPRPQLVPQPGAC

WAC C553 (UniProt Q9BTA9)
log2 ratio of iodoacetamide-alkyne labeling: inactive: 0.791

PAPOLG C604 (UniProt Q9BWT3)
log2 ratio of iodoacetamide-alkyne labeling: inactive: 0.433

C17orf80 C164 (UniProt Q9BSJ5)
log2 ratio of iodoacetamide-alkyne labeling: inactive: 0.161

PI4K2A C320 (UniProt Q9BTU6)
log2 ratio of iodoacetamide-alkyne labeling: inactive: 0.261

THUMPD3 C391 (UniProt Q9BV44)
log2 ratio of iodoacetamide-alkyne labeling: inactive: 0.0399

EDEM3 C82 (UniProt Q9BZQ6)
log2 ratio of iodoacetamide-alkyne labeling: inactive: 0.448

UniProt Q9BTX1_C369
log2 ratio of iodoacetamide-alkyne labeling: inactive: 0.121

TANC1 C131 (UniProt Q9C0D5)
log2 ratio of iodoacetamide-alkyne labeling: inactive: 0.487

UniProt Q9BYG3_C237
log2 ratio of iodoacetamide-alkyne labeling: inactive: 0.515

UniProt Q9BXJ9_C465
log2 ratio of iodoacetamide-alkyne labeling: inactive: 0.109

ASPSCR1 C174 (UniProt Q9BZE9)
log2 ratio of iodoacetamide-alkyne labeling: inactive: 0.164

RNF126 C15 (UniProt Q9BV68)
log2 ratio of iodoacetamide-alkyne labeling: inactive: 0.119

MSTO1 C46 (UniProt Q9BUK6)
log2 ratio of iodoacetamide-alkyne labeling: inactive: 0.147

VPS11 C890 (UniProt Q9H270)
log2 ratio of iodoacetamide-alkyne labeling: inactive: 0.265

C1orf50 C189 (UniProt Q9BV19)
log2 ratio of iodoacetamide-alkyne labeling: inactive: 0.17

HDHD3 C243 (UniProt Q9BSH5)
log2 ratio of iodoacetamide-alkyne labeling: inactive: 0.16

TBCD C234 (UniProt Q9BTW9)
log2 ratio of iodoacetamide-alkyne labeling: inactive: 0.281

EGLN1 C127 (UniProt Q9GZT9)
log2 ratio of iodoacetamide-alkyne labeling: inactive: 0.628

TBCD C625 (UniProt Q9BTW9)
log2 ratio of iodoacetamide-alkyne labeling: inactive: -0.172

KIFC1 C212 (UniProt Q9BW19)
log2 ratio of iodoacetamide-alkyne labeling: inactive: 0.282

UniProt Q9BXP5_C441
log2 ratio of iodoacetamide-alkyne labeling: inactive: 0.00234

SLK C1153 (UniProt Q9H2G2)
log2 ratio of iodoacetamide-alkyne labeling: inactive: 0.388
